From article doi:10.1101/2025.10.03.680331
No constants are given. Whether binding was seen depends on the method and setting. Binding seen in cells or lysates may run through a third protein. These calls come from enrichment with a bait or labelling near it, and not all partners need be listed. Where a sequence is shown, tags or fusion partners need not be part of it.

T1: GST-tagged mouse GlialCAM cytosolic tail (mouse) (UniProt Q640R3)
T1 sequence: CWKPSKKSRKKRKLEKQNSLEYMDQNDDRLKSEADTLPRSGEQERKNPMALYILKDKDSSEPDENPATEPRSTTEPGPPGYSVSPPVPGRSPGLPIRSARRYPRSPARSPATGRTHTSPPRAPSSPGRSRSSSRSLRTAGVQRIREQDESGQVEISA


Each binder was assayed against T1, GST-tagged mouse GlialCAM cytosolic tail (mouse) (assay: affinity purification with mass spectrometry).

| binding | Binder |
| --- | --- |
| binds | SPON1 (protein, UniProt Q8VCC9 29-807) FSDETLDKVTKSEGYCSRILRAQGTRREGYTEFSLRVEGDPDFYKPGSSYRVTLSAAPPSYFRGFTLIALKENQEGDKEEDHAGTFQIIDEEETQFMSNCPVAVTESTPRRRTRIQVFWIAPPTGTGCVILKASIVQKRIIYFQDEGSLTKKLCEQDPTLDGVTDRPILDCCACGTAKYRLTFYGNWSEKTHPKDYPRRANHWSAIIGGSHSKNYVLWEYGGYASEGVKQVAELGSPVKMEEEIRQQSDEVLTVIKAKAQWPAWQPVNVRAAPSAEFSVDRTRHLMSFLTMMGPSPDWNVGLSAEDLCTKECGWVQKVVQDLIPWDAGTDSGVTYESPNKPTIPQEKIRPLTSLDHPQSPFYDPEGGSITQVARVVIERIARKGEQCNIVPDNVDDIVADLAPEEKDEDDTPETCIYSNWSPWSACSSSTCEKGKRMRQRMLKAQLDLSVPCPDTQDFQPCMGPGCSDEDGSTCTMSEWITWSPCSVSCGMGMRSRERYVKQFPEDGSVCMLPTEETEKCTVNEECSPSSCLVTEWGEWDDCSATCGMGMKKRHRMVKMSPADGSMCKAETSQAEKCMMPECHTIPCLLSPWSEWSDCSVTCGKGMRTRQRMLKSLAELGDCNEDLEQAEKCMLPECPIDCELSEWSQWSECNKSCGKGHMIRTRTIQMEPQFGGVPCPETVQRKKCRTRKCLRSPSVQKLRWREARESRRSEQLREESDGEQFPGCRMRPWTAWSECTKLCGGGIQERYMTVKKRFKSSQFTSCKDKKEIRACNVHPC |
| binds | Ras GTPase-activating protein-binding protein G3BP2 (protein, UniProt P97379 1-482) MVMEKPSPLLVGREFVRQYYTLLNKAPEYLHRFYGRNSSYVHGGVDASGKPQEAVYGQNDIHHKVLSLNFSECHTKIRHVDAHATLSDGVVVQVMGLLSNSGQPERKFMQTFVLAPEGSVPNKFYVHNDMFRYEDEVFGDSEPELDEESEDEVEEEQEDRQPSPEPVQENANSAYYDAHPVTNGIEEPLEESSHEPEPEPESETKTEELKPQVEEKHLEELEEKSATPPPAEPASLPQEPPKAFSWASVTSKNLPPSGTVSSSGIPPHVKAPVSQPRVDAKPEVQSQPPRVREQRPRERPGFPPRGPRPGRGDMEQNDSDNRRIIRYPDSHQLFVGNLPHDIDENELKEFFMSFGNVVELRINTKGVGGKLPNFGFVVFDDSEPVQRILIAKPIMFRGEVRLNVEEKKTRAARERETRGGGDDRRDIRRNDRGPGGPRGIVGGGMMRDRDGRGPPPRGGMTQKLGSGRGTGQMEGRFTGQRR |
| binds | MARCKS (protein, UniProt P26645 1-309) MGAQFSKTAAKGEATAERPGEAAVASSPSKANGQENGHVKVNGDASPAAAEPGAKEELQANGSAPAADKEEPASGSAATPAAAEKDEAAAATEPGAGAADKEAAEAEPAEPSSPAAEAEGASASSTSSPKAEDGAAPSPSSETPKKKKKRFSFKKSFKLSGFSFKKSKKESGEGAEAEGATAEGAKDEAAAAAGGEGAAAPGEQAGGAGAEGAAGGEPREAEAAEPEQPEQPEQPAAEEPQAEEQSEAAGEKAEEPAPGATAGDASSAAGPEQEAPAATDEAAASAAPAASPEPQPECSPEAPPAPTAE |
| binds | MYEF2 (protein, UniProt Q8C854 1-591) MADADKSEAAAGDDGSQQQPAEPRRDTHPGEPEKPPRSSANGVKMENDESVKEEKSDLKEKSTGNKKANRFHPYSKDKNSGTGEKKGPNRNRVFISNIPYDMKWQAIKDLMREKVGEVTYVELFKDAEGKSRGCGVVEFKDEEFVKKALETMNKYDLSGRPLNIKEDPDGENARRALQRTGTSFQGSHASDVGSGLVNLPPSILNNPNIPPEVISNLQAGRLGSTIFVANLDFKVGWKKLKEVFSIAGTVKRADIKEDKDGKSRGMGTVTFEQAIEAVQAISMFNGQFLFDRPMHVKMDDKSVPHEDYRSHDSKTSQLPRGLGGIGMGLGPGGQPISASQLNITGVMGNLGPSGMGMDGPGFGGVNRIGGGVGFGGLEAMNSMAGFGGVGRMGELYRGAMTSSMERDFGRGDIGLSRGFGDSFGRLGSAMIGGFAGRIGASNMGPVGTGISGSMSGMSTVTGGMGMGLDRMSSSFDRMGPGIGAILERSIDVDRGFLSGPMGSGMRDRLGSKGNQIFVRNLPFDLTWQKLKEKFSQCGHVMFAEIKMENGKSKGCGTVRFESAESAEKACRIMNGIKISGREIDVRLDRNA |

Further lines, the binder ahead of its results:

| Binder | binding |
| --- | --- |
| DAB2 interacting protein (protein, UniProt Q3UHC7 1-1189) MSAGGNARKSTGRPSYYYRLLRRPRLQRQRSRSRSRTRPARESPQERPGSRRSLPGSMSEKNPSMEPSASTPFRVTGFLSRRLKGSIKRTKSQPKLDRNHSFRHILPGFRSAAAAAADNERSHLMPRLKESRSHESLLSPSSAVEALDLSMEEEVIIKPVHSSILGQDYCFEVTTSSGSKCFSCRSAAERDKWMENLRRAVHPNKDNSRRVEHILKLWVIEAKDLPAKKKYLCELCLDDVLYARTTSKLKTDNVFWGEHFEFHNLPPLRTVTVHLYRETDKKKKKERNSYLGLVSLPAASVAGRQFVEKWYPVVTPNPKGGKGPGPMIRIKARYQTVSILPMEMYKEFAEHITNHYLGLCAALEPILSAKTKEEMASALVHILQSTGKVKDFLTDLMMSEVDRCGDNEHLIFRENTLATKAIEEYLKLVGQKYLQDALGEFIKALYESDENCEVDPSKCSSADLPEHQGNLKMCCELAFCKIINSYCVFPRELKEVFASWRQECSSRGRPDISERLISASLFLRFLCPAIMSPSLFNLLQEYPDDRTARTLTLIAKVTQNLANFAKFGSKEEYMSFMNQFLEHEWTNMQRFLLEISNPETLSNTAGFEGYIDLGRELSSLHSLLWEAVSQLDQSVVSKLGPLPRILRDVHTALSTPGSGQLPGTNDLASTPGSGSSSVSAGLQKMVIENDLSGLIDFTRLPSPTPENKDLFFVTRSSGVQPSPARSSSYSEANEPDLQMANGSKSLSMVDLQDARTLDGEAGSPVGPDALPADGQVPATQLLAGWPARAAPVSLAGLATVRRAVPTPTTPGTSEGAPGRPQLLAPLSFQNPVYQMAAGLPLSPRGLGDSGSEGHSSLSSHSNSEELAAAAKLGSFSTAAEELARRPGELARRQMSLTEKGGQPTVPRQNSAGPQRRIDQPPPPPPPPPPAPRGRTPPTLLSTLQYPRPSSGTLASASPDWAGPGTRLRQQSSSSKGDSPELKPRAMHKQGPSPVSPNALDRTAAWLLTMNAQLLEDEGLGPDPPHRDRLRSKEELSQAEKDLAVLQDKLRISTKKLEEYETLFKCQEETTQKLVLEYQARLEEGEERLRRQQEDKDIQMKGIISRLMSVEEELKKDHAEMQAAVDSKQKIIDAQEKRIASLDAANARLMSALTQLKERYSMQARNGVSPTNPTKLQITENGEFRNSSNC | binds |
| AMER2 (protein, UniProt Q8CCJ4 1-672) METGRSRGGGAAVSERGGGARAGVCGRQEQAGALAADMDSHCECAAETPAAEPPSGKINKAAFKLFKKRKSGGTMPSIFGVKNKGDGKSSGPTGMVRSRTHDGLAEVLVLEGSKKEEPPGGSDHSGARPIPGPPKPSGPGLGSLASSSVAKSHSFFSLLKKNGRSETGKGDHAEASKAGGKQKRGLKGIFSSMRWHRRDKRGKEEEEKAVRAAGPGNLVLPGSLTASLECVKEEPPRAARRPDSPGQDASRHAAGEPAGGEQAPASAESAPERICLEAGSPTGSGDQSSRGEDAEGHRREEKPGAALESGAGEVQAAEDASKTGDVPIKTVPLVDSEGGSGRASAVPDPSSVDPPSDPSADRICLMFSDVTSLKSFDSLTGCGDIIADPEEEAGPSCDKHVPGPGKPVLSKKNASVVAYQGGGEEMASPDQVDDTYLPEFWDMLSQTEDQGQGTQEGAAKAATASDIKLAPETSSDTRCGEAAKDMSSVKRRRLHRIPIESQQKEEPKHPEKEHQEGVPNSDEGYWDSTTPGPEEESISNSSSSKKVVIPRDSDSGDALCDLYVEPEASPATLPATEDPPCLSRLKPVSPGTITCPLRTPGSLLKDSKIPISIKHLSNLPSSHPVVHQQPARSEVPRTKIPVSKVLVRRVSNRGLAGTTIRAAACHDSAKKL | binds |
| C1QBP (p32) (protein, UniProt O35658 71-278) LHTEGDKAFVEFLTDEIKEEKKIQKHKSLPKMSGDWELEVNGTEAKLLRKVAGEKITVTFNINNSIPPTFDGEEEPSQGQKAEEQEPERTSTPNFVVEVTKTDGKKTLVLDCHYPEDEIGHEDEAESDIFSIKEVSFQATGDSEWRDTNYTLNTDSLDWALYDHLMDFLADRGVDNTFADELVELSTALEHQEYITFLEDLKSFVKNQ | binds |
| ADD3 (protein, UniProt Q9QYB5 1-706) MSSDTSPAVVTTPPPPSMPHKERYFDRINESDPEYLRERNMSPDLRQDFNMMEQRKRVTQILQSPAFREDLECLIQEQMKKGHNPSGLLALQQIADYIVTSSFSGFSSPSLSLGMVTPINDLPGADTSSYVKGEKLTRCKLASLYRLADLFGWAHLANTYISVRISKEQDHIIIIPRGLSFSEATASTLVKVNIIGEVVDQGSTDLKIDHTGFSPHAAIYSTRPDVKCVIHIHTLATAAVSSMKCGILPISQESLILGDVAYYDYQGSLDEEEERIELQKVLGPSCKVLVLRNHGMVALGETLEEAFHYIFNVQMACEIQVQAVAGAGGVDNLLVLDLQKYKAFTHGVAMSGGGGVNMASHQKWKVGEIEFEGLMRTLDNLGYRTGYAYRHPLVREKPRHKSDVEIPATVTAFSFEDDSAPLSPLKFMAQRQQREKTRWLNSPNTYMKVNVPEESRNGETSPRTKITWMKAEDSSKVSSGTPIKIEDPNQFVPLNTNPTEVLEKRNKIREQNRYDLKTAGPQSQLLAGIVVDKPPSTMQFDDDDQGPPAPPNPFSHLLEGELEEYTKTIERKQQGLDDAEQGSLSDDAASVSQIQSQTQSPQSVPERLEENHELFSKSFTSMDAPVMIMNGKDEMHDVEDELAQRVSRLTTSTTIENIEITIKSPERTEEVLSPDGSPSKSPSKKKKKFRTPSFLKKNKKKEKVEA | binds |
| DCLK1 (protein, UniProt Q9JLM8 1-756) MSFGRDMELEHFDERDKAQRYSRGSRVNGLPSPTHSAHCSFYRTRTLQTLSSEKKAKKVRFYRNGDRYFKGIVYAISPDRFRSFEALLADLTRTLSDNVNLPQGVRTIYTIDGLKKISSLDQLVEGESYVCGSIEPFKKLEYTKNVNPNWSVNVKTTSASRAVSSLATAKGGPSEVRENKDFIRPKLVTIIRSGVKPRKAVRILLNKKTAHSFEQVLTDITDAIKLDSGVVKRLYTLDGKQVMCLQDFFGDDDIFIACGPEKFRYQDDFLLDESECRVVKSTSYTKIASASRRGTTKSPGPSRRSKSPASTSSVNGTPGSQLSTPRSGKSPSPSPTSPGSLRKQRISQHGGSSTSLSSTKVCSSMDENDGPGEGDELGRRHSLQRGWRREESEEGFQIPATITERYKVGRTIGDGNFAVVKECIERSTAREYALKIIKKSKCRGKEHMIQNEVSILRRVKHPNIVLLIEEMDVPTELYLVMELVKGGDLFDAITSTSKYTERDASGMLYNLASAIKYLHSLNIVHRDIKPENLLVYEHQDGSKSLKLGDFGLATIVDGPLYTVCGTPTYVAPEIIAETGYGLKVDIWAAGVITYILLCGFPPFRGSGDDQEVLFDQILMGQVDFPSPYWDNVSDSAKELINMMLLVNVDQRFSAVQVLEHPWVNDDGLPENEHQLSVAGKIKKHFNTGPKPSSTAAGVSVIATTALDKERQVFRRRRNQDVRSRYKAQPAPPELNSESEDYSPSSSETVRSPNSPF | binds |
